The record followed here is publication PMC10770727.

The chains behind the UniProt entries cited, without tags or fusion partners. Residues count along the entry.
UniProt P52193, residues 18-417: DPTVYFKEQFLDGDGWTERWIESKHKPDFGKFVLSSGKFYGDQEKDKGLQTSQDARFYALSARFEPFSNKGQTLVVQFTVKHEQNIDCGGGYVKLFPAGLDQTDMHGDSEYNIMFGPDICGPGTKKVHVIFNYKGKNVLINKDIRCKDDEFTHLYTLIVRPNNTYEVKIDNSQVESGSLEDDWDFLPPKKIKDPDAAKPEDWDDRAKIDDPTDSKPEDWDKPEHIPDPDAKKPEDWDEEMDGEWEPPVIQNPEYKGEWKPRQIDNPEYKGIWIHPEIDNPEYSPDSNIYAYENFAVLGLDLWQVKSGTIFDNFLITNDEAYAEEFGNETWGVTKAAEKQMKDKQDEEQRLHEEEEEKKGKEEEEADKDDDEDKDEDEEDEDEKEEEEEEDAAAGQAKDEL
UniProt P02769, residues 25-607: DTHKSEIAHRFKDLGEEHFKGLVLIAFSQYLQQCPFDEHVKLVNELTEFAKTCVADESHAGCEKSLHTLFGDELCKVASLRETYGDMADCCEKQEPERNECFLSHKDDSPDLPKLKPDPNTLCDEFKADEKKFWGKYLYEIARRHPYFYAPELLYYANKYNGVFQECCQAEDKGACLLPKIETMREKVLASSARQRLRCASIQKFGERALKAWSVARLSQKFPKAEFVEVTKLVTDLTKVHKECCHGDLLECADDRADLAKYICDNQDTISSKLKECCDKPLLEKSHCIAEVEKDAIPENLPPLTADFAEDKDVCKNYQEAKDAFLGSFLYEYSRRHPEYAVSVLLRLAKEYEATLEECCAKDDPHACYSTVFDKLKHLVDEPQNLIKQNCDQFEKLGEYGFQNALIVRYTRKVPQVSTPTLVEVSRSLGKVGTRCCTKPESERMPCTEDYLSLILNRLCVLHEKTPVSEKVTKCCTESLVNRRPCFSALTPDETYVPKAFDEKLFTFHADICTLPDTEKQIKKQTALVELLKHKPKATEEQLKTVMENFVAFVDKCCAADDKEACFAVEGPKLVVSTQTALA

In this test the target is bovine liver calreticulin (bovine) (UniProt P52193). Description: SPR; bovine CRT or human recombinant S100A10 amine-coupled to CM5 chips (1000 to 1300 RU), BIACORE 3000; Glu-plasminogen (0-1 uM) or 0.5 uM bovine serum albumin flowed at 50 ul/min; 25 °C; HBS-ET (10 mM Hepes pH 7.4, 150 mM NaCl, 3 mM EDTA, 0.05% Tween-20); apparent KD from steady-state affinity model; both purified. (SPR reads the build-up and loss of mass on a sensor chip optically.)

Results are given in words; binding and its absence hold for the method and conditions named.

In the case of “bovine serum albumin (from UniProt P02769 25-607)”, the binding result is “no binding (tested: 500 nM)”.
